Source: PubChem BioAssay AID2685 (National Center for Advancing Translational Sciences (NCATS), 2010)
Some of the results follow. Shown are side measurements of this screen, not its main read-out; they come without a call. Compounds called inactive in the main read-out are mostly missing here. Words in brackets tell the shape of the fitted curve; partial curves, single points and poor fits give uncertain potencies.

Assay: qHTS Assay for Lipid Storage Modulators in Drosophila S3 Cells;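 as to cell number change: cells counted by Cell Tracker Red CMTPX staining in the red channel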
Conditions: BODIPY lipid droplet fluorescence, 18-24 h; for cell number change: measured here: cell count max response, cells fed with added oleic acid
Summary of the method: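 Drosophila S3 cells loaded with oleic acid (400 uM, as added) and compounds at several concentrations; lipid droplets imaged by 488-nm laser-scanning cytometry, 500–530 nm intensity and object ratio to cell channel. Percent activity normalized to 20 uM Triacsin C.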

[1] = measured here: lipid fluorescence (Fed channel) AC50, cells fed with added oleic acid
[2] = measured here: cell number channel AC50, cells fed with added oleic acid

| Compound | cell number change | AC50 [1] | AC50 [2] |
| --- | --- | --- | --- |
| CCCc1c(OCCCOc2ccc(OCC(=O)O)cc2)ccc(C(C)=O)c1O | 5.52% | 8.2 µM [falling, partial curve, poor fit] |  |
| O=C(/C=C/c1ccc(Cl)cc1Cl)NC(=S)Nc1ccc(CN2CCOCC2)cc1 | -68.9% | 32.6 µM [falling, partial curve] | 14.6 µM [falling, partial curve] |
| Cc1ncsc1CCOC(=O)C1C2CC3CC(C2)CC1C3 (stereo unspecified) | -43.3% | 29.1 µM [falling, single point] | 29.1 µM [falling, single point] |
| CCOC(=O)CC1(NC(=O)C2CCC(=O)N(Cc3ccccc3OC)C2)CCCCC1 (stereo unspecified) | -14.7% | 6.51 µM [falling, single point] |  |
| O=C(CS(=O)CC(=O)NC12CC3CC(CC(C3)C1)C2)Nc1ccc(F)cc1 (stereo unspecified) | 17.9% |  |  |
| CCn1c(SCC(=O)Nc2cc(C)on2)nc2sc(C)c(C)c2c1=O | 14.4% | 0.58 µM [rising, full curve] |  |
| Cc1ccc2nc(N(CCCN(C)C)C(=O)CS(=O)(=O)c3ccccc3)sc2c1 | -9.72% | 0.651 µM [falling, full curve, poor fit] | 1.3 µM [falling, full curve, poor fit] |
| Cc1ccc(S(=O)(=O)c2c(N)n(CC3CCOC3)c3nc4ccccc4nc23)cc1 (stereo unspecified) |  | 0.259 µM [rising, partial curve, poor fit] |  |
| COc1ccc(C(=O)C23CC4CC(C2)CC(C(=O)c2ccc(OC)cc2)(C4)C3)cc1 | 2.2% | 12.6 µM [rising, single point] |  |
| Cc1ccc(C(=O)Oc2cc(C)n(C)c(=O)c2)cc1 | 151% | 20.6 µM [rising, partial curve] |  |
| Cc1c(C)n2c(SCC(=O)Nc3cccc4ccccc34)nnc2[nH]c1=O | -52.6% |  | 32.6 µM [falling, single point] |
| COc1cc(/C=C2\SC(=S)N(CCC(=O)NCCc3ccccc3)C2=O)cc(OC)c1OC |  | 6.51 µM [falling, single point] |  |
| O=C(CSc1nc2ccccc2[nH]1)NCc1ccc(F)cc1 |  | 0.58 µM [falling, single point] |  |
| COc1cccc(Oc2cn[nH]c2-c2ccc(OC)cc2O)c1 | -77.1% | 32.6 µM [falling, partial curve] | 23.1 µM [falling, partial curve] |
| C=C1C(O)C[C@H]2C(=C)CCC3[C@H](OC(=O)[C@]3(O)CO)[C@@H]12 (stereo partly specified) | 21.2% | 3.66 µM [falling, single point] |  |
| O=C(O)c1ccccc1SC1CC(=O)N(c2cccc3ccccc23)C1=O (stereo unspecified) | -23.2% | 0.259 µM [falling, full curve, poor fit] |  |
| COCc1cc(=O)[nH]c(/N=C(\N)Nc2ccc(C)cc2)n1 | 6.27% | 2.31 µM [rising, single point] |  |
| C[C@@H](NC(=O)OC(C)(C)C)C(=O)NCC1CCC(C(=O)N[C@@H](Cc2ccccc2)C(=O)O)CC1 (stereo partly specified) | -12.8% | 5.8 µM [rising, single point] |  |

| Compound | cell number change | AC50 [1] | AC50 [2] |
| --- | --- | --- | --- |
| COc1ccc([C@H]2CC(=O)C=C(c3cc(F)ccc3OC)C2)cc1 | -0.963% | 6.51 µM [rising, partial curve, poor fit] |  |
| O=C(Nc1cc(S(=O)(=O)N2CCCC2)ccc1OCC(F)(F)F)c1ccc(F)cc1 | 39.7% | 0.461 µM [rising, single point] | 16.4 µM [rising, single point] |
| COc1cc(OC)c2c(OC)cccc2n1 | 8.76% | 18.4 µM [rising, single point] |  |
| O=C(Nc1ccnn1C1CCN(Cc2ccccc2)CC1)c1ccccc1Cl | 16.7% | 0.164 µM [rising, partial curve, poor fit] |  |
| COc1cc(C2NC(=O)NC(C)=C2C(=O)OC2CCCCC2)cc(Cl)c1O (stereo unspecified) | -36% | 0.58 µM [rising, single point] | 32.6 µM [falling, single point] |
| COc1ccc(CNc2nc3c(c(C(F)(F)F)n2)CCCCC3)cc1 | -51.5% | 11.6 µM [falling, partial curve] | 9.2 µM [falling, partial curve] |
| O=C(c1ccc2c(=O)n(Cc3ccccc3)c(=S)[nH]c2c1)N1CCCC1 | 4.84% | 10.3 µM [rising, partial curve, poor fit] |  |
| Cc1nn(-c2ccccc2)c(Cl)c1/C=C1\C(=O)N(C)C(=S)N1C |  |  | 0.146 µM [falling, full curve, poor fit] |
| Cc1ccc(-c2cc(-c3ccccc3[N+](=O)[O-])[nH]n2)c(O)c1 | -43.6% |  | 29.1 µM [falling, single point] |
| CC1CCN(C(=O)COC(=O)c2ccc(=O)n(Cc3ccccc3)n2)CC1 |  |  | 0.517 µM [falling, full curve] |
| CCS(=O)(=O)N1Cc2ccccc2CC1C(=O)NCC12CC3CC(CC(C3)C1)C2 (stereo unspecified) | 2.71% | 18.4 µM [falling, partial curve] |  |
| CC(=O)c1c(C)[nH]c(C(=O)COC(=O)c2cccc(S(=O)(=O)N(C)c3ccccc3)c2)c1C |  | 5.8 µM [falling, partial curve] | 0.82 µM [rising, partial curve, poor fit] |
| CC(=O)c1cccc(NC(=O)C2CCN(S(=O)(=O)c3ccccc3)CC2)c1 | 15.9% |  |  |
| O=C(O)CCCC(=O)Nc1ccc2c(c1)oc1ccccc12 | 24.2% | 29.1 µM [rising, single point] |  |
| CCOc1ccc(N2C(=O)CC(N3CCC(O)(c4ccc(Br)cc4)CC3)C2=O)cc1 (stereo unspecified) | 4.69% |  | 4.61 µM [rising, single point] |
| COc1ccc(CNC(=O)c2nn(C)c3c2CS(=O)(=O)c2ccccc2-3)cc1 | 29% | 10.3 µM [rising, partial curve] |  |
| CSc1nc(C)c(CCOC(=O)c2cccc(C)c2)c(=O)[nH]1 | 4.89% |  |  |
| Cc1cc2ncn(/N=C/c3cccnc3)c2cc1C | -12.8% | 29.1 µM [falling, single point] |  |

Quoted at random: two compounds from above

| Compound | cell number change | AC50 [1] | AC50 [2] |
| --- | --- | --- | --- |
| Cc1nn(-c2ccccc2)c(Cl)c1/C=C1\C(=O)N(C)C(=S)N1C |  |  | 0.146 µM [falling, full curve, poor fit] |
| Cc1ccc(-c2cc(-c3ccccc3[N+](=O)[O-])[nH]n2)c(O)c1 | -43.6% |  | 29.1 µM [falling, single point] |
